Data published in PubChem BioAssay AID1347076 (National Center for Advancing Translational Sciences (NCATS), 2019).
The whole screen tested about 400,000 compounds, of which about 13,000 (3.2%) were called active. The inconclusive results got no clear call from the source; some entries with a clear call stand among them for comparison. Calls follow the shape of the dose curve; as a rule, active = well fitted cell-killing curve with a large enough effect; inconclusive = small, poorly fitted or top-dose-only effect, or effect the other way; inactive = flat fitted curve, though single readings scatter. A potency beside an inconclusive call is a rough fit, not a confirmed value.

experiment: qHTS assay for MDR1-selective chemotherapeutics: Primary screen using the drug-selected MDR subline cells KB-V1; details: KB-V1 MDR cells viability, CellTiter-Glo, 72 h; activity change, negative = cytotoxicity: at 46.1 µM (top of the series); also: nearly all actives have a fitted effect of over 60% in size
Outline: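 qHTS viability screen in drug-selected KB-V1 MDR cells: 72 h compound treatment at 37 degrees C, ATP luminescence end point.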
% is scaled to controls: 0 for no effect and ±100 for the full control effect; potency is read from the fitted curve at half-maximal effect.

Row | Compound | Potency | activity change, negative = cytotoxicity
1 | CCn1nc(C(=O)Nc2ccccc2N2CCCC2)c2ccccc2c1=O | inconclusive: 14.6 µM [cytotoxic, partial curve] | 
2 | Cc1cc(N2CCC(C(=O)Nc3ccc(Cl)cc3)CC2)n2nc(C)c(-c3ccc(Cl)cc3)c2n1 | inconclusive: 29.1 µM [rising, single point] | 
3 | Cc1cccc(/N=C/c2nc(-c3ccccc3Br)oc2O)n1 |  | inactive: 16.3%
4 | COc1ccc(S(=O)(=O)Nc2ccc(Nc3ccccc3)cc2)cc1 | inconclusive: 32.6 µM [cytotoxic, single point] | 
5 | CCCN(CCC)S(=O)(=O)c1ccc(C(=O)Nc2nc3c(s2)CCc2ccccc2-3)cc1 |  | inactive: -28.7%
6 | CC1CC(C)CN(C(=O)CSc2n[nH]c(N)n2)C1 (stereo unspecified) | inconclusive: 32.6 µM [rising, partial curve, poor fit] | 
7 | O=C(N/N=C/c1cc([N+](=O)[O-])ccc1O)c1ccc(COc2ccc3c(c2)CCC3)o1 | inconclusive: 29.1 µM [cytotoxic, single point] | 
8 | Cc1ccc(CC(=O)Nc2c(C(=O)N3CCN(c4ccccc4)CC3)oc3ccccc23)cc1 | inconclusive: 10.3 µM [cytotoxic, partial curve] | 
9 | O=C(CNc1ccc2ccccc2c1)N/N=C/c1ccc(C(=O)O)cc1 |  | inactive: 6.15%
10 | Cc1cccc(C(=O)N2CCC(=O)N(C(COCc3cccc(C(F)(F)F)c3)Cc3ccccc3)CC2)c1 (stereo unspecified) | inconclusive: 8.2 µM [cytotoxic, partial curve] | 
11 | O=C(Nc1cc(S(=O)(=O)N2CCCCC2)ccc1Cl)c1ccccc1NS(=O)(=O)c1ccc(F)cc1 | inconclusive: 3.26 µM [cytotoxic, full curve, poor fit] | 
12 | COC(=O)c1cccc(COC(=O)c2ccccc2NC(=O)c2ccco2)c1 | inconclusive: 6.51 µM [cytotoxic, partial curve] | 
13 | O=C(Cc1ccc(F)cc1)Nc1cccc(S(=O)(=O)N2CCCC2)c1 | inconclusive: 16.4 µM [cytotoxic, single point] | 
14 | C=C1CCC[C@]2(C)C[C@H]3OC(=O)C(CNCC(OC)OC)[C@H]3CC12 (stereo partly specified) |  | inactive: 13.9%
15 | Cn1cnc2c(=O)oc3ccc(S(=O)(=O)N4CCN(c5ccccc5F)CC4)cc3c21 | inconclusive: 29.1 µM [rising, single point] | 
16 | CC1CN(S(=O)(=O)c2cccc(C(=O)Nc3ccccc3N3CCOCC3)c2)CC(C)O1 (stereo unspecified) | inconclusive: 6.51 µM [cytotoxic, full curve] | 
17 | N#Cc1sc2nc(N3CCCCC3)c3c(c2c1N)CCCC3 | active: 7.31 µM | 
18 | O=C(Nc1cccc(C(=O)O)c1)/C(=C\c1ccc2c(c1)OCO2)NC(=O)c1ccc(Br)o1 | inconclusive: 3.66 µM [rising, full curve, poor fit] | 
19 | CCOC(=O)c1ccc2c(c1)nc(SCC(=O)N1CCCCC1)n2CC | inconclusive: 2.59 µM [cytotoxic, full curve, poor fit] | 
20 | CCOC(=O)/C(=C\Nc1ccc(OC(F)(F)F)cc1)Sc1ncc(C(F)(F)F)cc1Cl | inconclusive: 25.9 µM [cytotoxic, single point] | 
21 | C=CCOC(=O)C1=C[C@@H](c2csc3ccccc23)[C@H](CCCO)[C@@H](OCC)O1 | inconclusive: 29.1 µM [cytotoxic, single point] | 
22 | COc1cc(CNCCCN2CCOCC2)cc(Br)c1OCc1ccc(Cl)cc1 | inconclusive: 29.1 µM [cytotoxic, single point] | 
23 | Cn1cc(C(=O)Nc2ccc(C#N)cc2)c2ccccc2c1=O | inactive | 
24 | CCOc1ccc2oc(C(=O)NCc3nc4ccccc4[nH]3)c(C)c2c1 | inconclusive: 8.2 µM [cytotoxic, partial curve] | 

Row | Compound | Potency | activity change, negative = cytotoxicity
25 | COc1ccc(C2c3ccc4ccccc4c3Oc3ncn(CCO)c(=N)c32)cc1 (stereo unspecified) |  | inactive: -5.03%
26 | C=CCn1c(SCC(=O)NC2CCCCC2)nnc1-c1ccc(OC)cc1 | active: 4.11 µM | 
27 | COc1cc(S(=O)(=O)Nc2ccc(C)cc2)ccc1N=Cc1c(C)[nH]n(-c2ccc(C)cc2)c1=O | inconclusive: 23.1 µM [cytotoxic, single point] | 
28 | Cc1nc(Nc2nc3ccccc3o2)nc2c1CCCC2 |  | inactive: 0%
29 | COc1ccc2c(-c3ccccc3)cc(SCC(=O)NC3CCS(=O)(=O)C3)nc2c1 (stereo unspecified) |  | inactive: 0%
30 | Cc1ccc(Sc2ncccc2COC(=O)Nc2ccccc2)cc1 |  | inactive: -2.31%
31 | CCOC(=O)C1C(=O)N(C(=O)c2ccc(OC)cc2)CC1c1ccccc1 (stereo unspecified) | inconclusive: 29.1 µM [cytotoxic, single point] | 
32 | COc1ccc(C(=O)OC(C)C(=O)Nc2cc(C(F)(F)F)ccc2Cl)c(OC)c1OC (stereo unspecified) | inconclusive: 29.1 µM [cytotoxic, single point] | 
33 | COc1ccc(C(=O)Nc2ccc3c(c2)Cc2ccccc2-3)cc1 | inconclusive: 29.1 µM [rising, single point] | 
34 | O=C(CSc1nc2c([nH]c3ccccc32)c(=O)n1-c1ccc(F)cc1)NCc1ccc(F)cc1 |  | inactive: -11.1%
35 | CCOc1ccc(CCNC(=O)c2ccc3c(c2)nc2n3CCOC2)cc1OCC |  | inactive: -0.775%
36 | CCOc1ccc(-c2nnc3ccc(SCC(=O)N4CCN(c5ccccc5)CC4)nn23)cc1 | inconclusive: 0.92 µM [cytotoxic, full curve] | 
37 | COc1ccccc1NC(=O)N1CCN(c2cccc(C(F)(F)F)c2)CC1 | inconclusive: 23.1 µM [cytotoxic, partial curve, poor fit] | 
38 | COc1cccc(CC(=O)NNC(=O)c2ccc3c(c2)OCO3)c1 | inconclusive: 29.1 µM [rising, single point] | 
39 | CCCCOc1ccc(C2=NNC(=O)CC2)cc1 |  | inactive: 0%
40 | CC(C(=O)NC(=O)NC1CCCCC1)N1CCN(C(c2ccccc2)c2ccccc2)CC1 (stereo unspecified) | active: 9.2 µM | 
41 | CCCCOP(=O)(OCCCC)C1(NS(=O)(=O)c2ccccc2)C=CC(=O)c2ccccc21 (stereo unspecified) | inconclusive: 20.6 µM [cytotoxic, single point] | 
42 | COc1ccc2cc(C#N)c(Cl)nc2c1 | inconclusive: 18.4 µM [rising, partial curve] | 
43 | Cc1ccc(C(=O)c2c3ccccc3[n+]([O-])n2CCC(=O)O)cc1 |  | inactive: -5.22%
44 | CC(=O)NC(Cc1cccc(F)c1)C(=O)NC1CCN(c2nnnn2-c2ccccc2)CC1 (stereo unspecified) |  | inactive: -0.66%
45 | COC(=O)[C@]12CCCCC=C1N(Cc1ccc(Cl)cc1Cl)C(=O)[C@H](CC(=O)NCc1cccc3ccccc13)C2 | inconclusive: 10.3 µM [cytotoxic, partial curve, poor fit] | 
46 | Brc1ccc2c(c1)C(c1cccs1)=NNC(c1cccnc1)=N2 | active: 20.6 µM | 
47 | COc1ccccc1N1CCN(C(=O)c2ccc3nc(-c4ccco4)c(-c4ccco4)nc3c2)CC1 | active: 23.1 µM | 
48 | Nn1c(-c2ccc(O)cc2)nnc1-c1ccc(O)cc1 |  | inactive: -9.37%

Row | Compound | Potency | activity change, negative = cytotoxicity
49 | COC(=O)C(C)Sc1nc2c(cnn2-c2ccc(Cl)cc2)c(=O)[nH]1 (stereo unspecified) | inconclusive: 5.8 µM [rising, partial curve] | 
50 | Cc1c(Cl)cccc1-n1ncc(C(=O)N2CCC(C)CC2)c1C1CCN(C(=O)OC(C)(C)C)CC1 |  | inactive: 0%
51 | COc1ccc(-n2cccc2/C=C/[N+](=O)[O-])cc1 | inconclusive: 20.6 µM [cytotoxic, single point] | 
52 | COc1ccc(NC(=O)Cc2c(F)cccc2Cl)c(OC)c1 | inconclusive: 32.6 µM [cytotoxic, partial curve, poor fit] | 
53 | O=C(Nc1cccc(S(=O)(=O)N2CCCCC2)c1)c1ccccn1 | inconclusive: 10.3 µM [cytotoxic, partial curve, poor fit] | 
54 | C#CC(=O)N(c1cc(OC)ccc1OC)C(C(=O)NC1CCCC1)c1cccs1 (stereo unspecified) | inconclusive: 18.4 µM [cytotoxic, partial curve, poor fit] | 
55 | Cc1cc(C)nc(NS(=O)(=O)c2ccc(NC(=O)c3nc(SC(C)C)ncc3Cl)cc2)n1 |  | inactive: 1.7%
56 | CSc1cc(-c2ccccc2)[nH]c(=O)c1C#N |  | inactive: 9.6%
57 | CCOC(=O)c1ccc(NC2=CC(=O)C(=O)c3ccccc32)cc1 | inconclusive: 29.1 µM [cytotoxic, single point] | 
58 | CCNC(=O)c1ccc(C23CC4CC(CC(C4)C2)C3)o1 |  | inactive: -19.9%
59 | NC(=O)C1CCN(C(=O)CSc2nc(O)cc(=O)[nH]2)CC1 |  | inactive: 13.5%
60 | COc1ccc(C(O)Cc2nccn2C)cc1 (stereo unspecified) | inconclusive: 16.4 µM [rising, single point] | 
61 | O=C(CCSc1nnc2scc(-c3ccccc3)n12)Nc1nc(-c2ccccc2)ns1 | active: 10.3 µM | 
62 | O=C(CNC(=O)C1CCCCC1)Nc1cc(Cl)ccc1Cl | active: 20.6 µM | 
63 | COc1ccc(Nc2c(-c3ccc(F)cc3)nc3nc(C)cc(C)n23)cc1 |  | inconclusive: -46.5%
64 | CC(=O)c1ccc(N2CCN(C(=O)c3cc4c(s3)-c3ccccc3OC4)CC2)cc1 | active: 16.4 µM | 
65 | COc1ccc(CNc2ccc(S(N)(=O)=O)cc2)c(OC)c1OC |  | inactive: 0%
66 | CC(C)C(NS(=O)(=O)c1ccc2c(c1)oc(=O)n2C)C(=O)NCc1ccccc1 (stereo unspecified) |  | inactive: -0.68%
67 | NNC(=O)CSc1cccc2cccnc12 |  | inactive: -0.94%
68 | COc1ccc(NC(=O)CSc2nc(-c3ccccc3)[nH]c2-c2ccccc2)cc1OC | inconclusive: 23.1 µM [cytotoxic, partial curve] | 
69 | CCN(CC)c1ccc(NC(=O)CN2CCN(S(=O)(=O)c3cc(Cl)ccc3OC)CC2)cc1 | inconclusive: 23.1 µM [cytotoxic, single point] | 
70 | CCOc1ccc(C(=O)NC2CCN(S(=O)(=O)CC)CC2)cc1 | inconclusive: 16.4 µM [cytotoxic, partial curve, poor fit] | 
71 | Cc1ccc(C)c(S(=O)(=O)N2CCN(C(=O)c3ccnn3C)CC2)c1 |  | inactive: -27.7%

Three entries out of the list, sorted by SMILES length, rising.
Row | Compound | Potency | activity change, negative = cytotoxicity
57 | CCOC(=O)c1ccc(NC2=CC(=O)C(=O)c3ccccc32)cc1 | inconclusive: 29.1 µM [cytotoxic, single point] | 
25 | COc1ccc(C2c3ccc4ccccc4c3Oc3ncn(CCO)c(=N)c32)cc1 (stereo unspecified) |  | inactive: -5.03%
61 | O=C(CCSc1nnc2scc(-c3ccccc3)n12)Nc1nc(-c2ccccc2)ns1 | active: 10.3 µM | 
